PubChem BioAssay AID1224830 – NIAID | 2016
Test: 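Host factors that control LPS-induced TNF expression in human macrophages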 (primary screen). Cells: human THP-1 monocytic leukaemia cells, TNF dual-luciferase reporter clone, PMA-differentiated to macrophage-like cells. Reagent: siRNA pool against human genes, 50 nM. Timing: LPS for 4 h, given about 3 days after siRNA transfection. Challenge: bacterial LPS (TLR4 ligand), 10 ng/ml. Measurement: 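Ratio of firefly to renilla light, scaled to the plate median and expressed as a robust z-score per replicate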. Scale: TNF reporter robust z-score: higher = stronger TNF reporter response to LPS. Active means: 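a well is active when its z-score exceeds 2.8 or falls below -1.5; control wells carry no call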.
The whole screen tested about 18,000 reagents; this is a random part of them. Of all reagents, about 2,900 (16%) were called active. 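Calls are made per well; low scores hint the gene aids the LPS response, high scores that it dampens it.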 Unmarked entries are inactive. Repeated entries: four replicate wells of each siRNA pool.

Target gene | TNF reporter robust z-score
RBSN | 0.78
RBSN | 0.9
RBSN | 0.57
RBSN | 1.66
DNAJC10 | -0.5
DNAJC10 | -0.81
DNAJC10 | -0.03
DNAJC10 | -0.52
ZNF587 | -0.21
ZNF587 | -0.03
ZNF587 | 0.35
ZNF587 | 0
C9orf163 | 5.29 (active)
C9orf163 | 5.6 (active)
C9orf163 | 5.45 (active)
C9orf163 | 7.4 (active)
SPINK7 | 0.14
SPINK7 | 0.02
SPINK7 | -0.93
SPINK7 | -1.43
PTPN3 | 5.42 (active)
PTPN3 | 0.44
PTPN3 | 4.03 (active)
PTPN3 | 2.39
MED26 | -1.18
MED26 | -1.59 (active)
MED26 | -1.43
MED26 | -1.36
CTSH | 0.11
CTSH | 0.44
CTSH | -0.05
CTSH | 0.29
UNC5C | -1.26
UNC5C | -1.02
UNC5C | -1.16
UNC5C | -0.8
ALMS1 | -1.86 (active)
ALMS1 | -1.6 (active)
ALMS1 | -1.33
ALMS1 | -1.55 (active)
TMEM98 | 1.85
TMEM98 | 0.8
TMEM98 | -0.27
TMEM98 | 2.45
PELP1 | -0.38
PELP1 | 0.83
PELP1 | -0.51
PELP1 | 0.53
TTC21B | -1.08
TTC21B | -0.58
TTC21B | 0.1
TTC21B | -0.32
NONO | -0.57
NONO | -0.38
NONO | 0.46
NONO | 0.69

The list goes on (5 carried over from the part before).
Target gene | TNF reporter robust z-score
TTC21B | -0.32
NONO | -0.57
NONO | -0.38
NONO | 0.46
NONO | 0.69
IDO1 | 1.09
IDO1 | -0.02
IDO1 | -0.85
IDO1 | 0.02
ATP2C2 | -0.29
ATP2C2 | 0.41
ATP2C2 | -0.37
CCDC24 | 2.31
CCDC24 | 0.32
CCDC24 | 0.59
CCDC24 | -0.73
NR3C2 | -0.52
NR3C2 | 0.37
NR3C2 | 0.67
NR3C2 | 1.85
CHM | -0.44
CHM | -0.04
CHM | -0.51
CCDC50 | 0.05
CCDC50 | 1.15
CCDC50 | 0.98
CCDC50 | 0.74
ADAM28 | -0.33
ADAM28 | 0.6
ADAM28 | -0.75
ADAM28 | -0.73
SEPTIN10 | -1.37
SEPTIN10 | -0.11
SEPTIN10 | -0.49
SEPTIN10 | 0.42
NLRC4 | -0.17
NLRC4 | -1.76 (active)
NLRC4 | -0.86
NLRC4 | -0.76
BRWD1 | -0.1
BRWD1 | 0.38
BRWD1 | -0.64
BRWD1 | 0.37
MCM6 | 1.81
MCM6 | -0.4
MCM6 | 0.14
MCM6 | -0.16
BCHE | -0.44
BCHE | 0.29
BCHE | 0.12
BCHE | 0.36
SLC23A1 | 1.28
SLC23A1 | 1.57
SLC23A1 | 1.33
SYNPO2L | 1.14
SYNPO2L | 2.12
SYNPO2L | 2.87 (active)
SYNPO2L | 0.81
EFCAB11 | -1.3
EFCAB11 | -1.27
EFCAB11 | -2.13 (active)
EFCAB11 | -1.99 (active)
OR1F1 | -0.04
OR1F1 | 0.32
OR1F1 | 0.49
OR1F1 | -0.22
PER1 | 1.73
PER1 | 0.55
PER1 | 0.36
PER1 | 1.26
ZNF460 | 1.59
ZNF460 | 2.58
ZNF460 | 2.14
ZNF460 | 0.9
C9orf72 | -1.94 (active)
C9orf72 | -1.65 (active)
C9orf72 | -1.75 (active)
C9orf72 | -1.4
PYGM | -1.06
PYGM | -1.69 (active)
PYGM | -1.17
PYGM | -0.18
MS4A3 | 1.16
MS4A3 | -0.01
MS4A3 | -0.91
NCKIPSD | 0.04
NCKIPSD | 0.52
NCKIPSD | 0.35
NCKIPSD | 0.42
